This is an account of results in article PMC5999394, “Design principles of a microtubule polymerase” (eLife, 2018).

No constants are given. Whether binding was seen depends on the method and setting. A result given as binding can be weak or reduced; the word gives no strength. Sequences can lack the tags named with a protein.

This test deals with T1, mCherry-tagged Zyg-9 (C. elegans) (UniProt G5EEM5).
T1 sequence: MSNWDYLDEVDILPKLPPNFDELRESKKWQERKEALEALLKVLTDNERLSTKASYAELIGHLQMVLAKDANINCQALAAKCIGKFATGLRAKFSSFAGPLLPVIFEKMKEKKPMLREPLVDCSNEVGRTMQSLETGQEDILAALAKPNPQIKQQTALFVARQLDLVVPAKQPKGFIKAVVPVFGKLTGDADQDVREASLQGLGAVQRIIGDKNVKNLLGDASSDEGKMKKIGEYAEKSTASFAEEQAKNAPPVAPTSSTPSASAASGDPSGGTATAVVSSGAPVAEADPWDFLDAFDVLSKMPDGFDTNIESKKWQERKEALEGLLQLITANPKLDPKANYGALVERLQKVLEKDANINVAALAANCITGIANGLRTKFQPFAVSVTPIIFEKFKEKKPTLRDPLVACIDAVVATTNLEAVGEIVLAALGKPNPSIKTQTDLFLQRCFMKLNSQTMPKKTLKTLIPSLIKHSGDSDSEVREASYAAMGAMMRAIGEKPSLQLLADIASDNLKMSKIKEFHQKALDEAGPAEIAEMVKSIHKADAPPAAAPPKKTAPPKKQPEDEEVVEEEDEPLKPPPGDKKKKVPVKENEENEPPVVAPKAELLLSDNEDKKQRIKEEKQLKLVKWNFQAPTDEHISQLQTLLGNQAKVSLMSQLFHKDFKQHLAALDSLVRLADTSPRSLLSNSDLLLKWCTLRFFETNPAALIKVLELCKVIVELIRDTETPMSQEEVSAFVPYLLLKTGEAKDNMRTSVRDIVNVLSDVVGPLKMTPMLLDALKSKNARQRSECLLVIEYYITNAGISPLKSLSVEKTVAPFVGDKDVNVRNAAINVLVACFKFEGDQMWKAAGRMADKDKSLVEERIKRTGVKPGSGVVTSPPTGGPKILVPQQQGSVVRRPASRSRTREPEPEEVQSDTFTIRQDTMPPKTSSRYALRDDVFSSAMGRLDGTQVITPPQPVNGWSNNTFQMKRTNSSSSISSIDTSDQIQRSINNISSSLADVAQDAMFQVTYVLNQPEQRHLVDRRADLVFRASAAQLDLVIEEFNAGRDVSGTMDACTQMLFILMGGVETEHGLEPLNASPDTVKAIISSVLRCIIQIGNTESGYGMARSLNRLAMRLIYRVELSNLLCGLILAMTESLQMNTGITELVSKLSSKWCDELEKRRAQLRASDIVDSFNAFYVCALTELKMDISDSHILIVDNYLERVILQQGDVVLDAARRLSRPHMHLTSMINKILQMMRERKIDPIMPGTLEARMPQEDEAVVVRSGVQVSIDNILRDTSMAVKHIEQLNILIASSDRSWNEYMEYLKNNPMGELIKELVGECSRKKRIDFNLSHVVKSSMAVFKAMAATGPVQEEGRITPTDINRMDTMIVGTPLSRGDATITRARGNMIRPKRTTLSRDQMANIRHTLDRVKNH
The experiment in a line: TIRF microscopy of Zyg-9-mCherry on stabilized microtubules; 50 nM Zyg-9-mCherry on unlabeled GTPγS-stabilized yeast microtubules, without or with 5 μM bovine tubulin as competing binding partner; both purified.

With “bovine tubulin (unpolymerized) (complex)”, the binding result is “binds”.
